{
  "source": "patent US9987370B2",
  "about": "(priority 2012, dated 2018)",
  "experiment": "general procedure: Fmoc solid-phase peptide synthesis; Rink; HBTU/DIEA (automated); HATU/DIEA (manual)",
  "note": "Where a sequence shows no end group, the ends are not given.",
  "data": [
    {"substance": "AcCGVQIVYKK (N-acetyl; PXL-buSS conjugate; Sup35 yeast prion fragment)", "values": [
      {"measurement": "conjugation yield", "setting": "conjugation step", "value": 60, "unit": "%"},
      {"measurement": "final HPLC purity", "setting": "conjugation step", "value": ">98", "unit": "%"}
    ]},
    {"substance": "GVQIVYKK", "values": [
      {"measurement": "final HPLC purity", "setting": "whole synthesis", "value": ">99", "unit": "%"}
    ]}
  ]
}
